Laboratory results: PubChem BioAssay AID652272 (Drosophila RNAi Screening Center, 2013)

Aim: 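Genome-wide knock-down search for components of Hedgehog signalling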 (primary screen)
System: Drosophila clone 8 (Cl8) cells
Reagents: long dsRNA against Drosophila genes
Read-out: 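Firefly light from a Hedgehog-responsive ptc promoter reporter and Renilla reference light, both read on a plate reader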
Reading the numbers: firefly Hh reporter signal: higher = more ptc reporter light; Renilla reference signal: higher = more Renilla control light
Hit rule: 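Hit when the z-score averaged over two replicates is under -2 or over +3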
Meaning of the calls: active = hit: reporter lowered or raised; inactive = not a hit
In all, the deposit lists about 21,000 reagents; shown is an unselected part of those that have a named target and a result. In the full data, 503 (2.4%) got an active call. 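Raw plate light values, not normalised; calls rest on replicate z-scores that were not deposited; hits include reporter decreases as well as increases.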 Unmarked entries are inactive. Reagents against one gene are numbered here. A plus sign joins genes that one reagent is predicted to hit. Not stated in the record: the amount of reagent, the time to read-out.

no.	target gene	reagent	firefly Hh reporter signal, replicate 1	firefly Hh reporter signal, replicate 2	firefly Hh reporter signal, replicate 3	Renilla reference signal, replicate 1	Renilla reference signal, replicate 2
1	Pi3K21B (GeneID 33203)	1	71043	42452		3237	2096
2	CG31827 + CG18478	1	1.03e5	65956		2872	5748
3	CG13667 (GeneID 38956)	1	94605	70057		5451	2896
4	GckIII (GeneID 42064)	1	64131	66914		1338	2016
5	wkd (GeneID 41390)	1	77733	1.07e5		2247	5413
6	CG8159 (GeneID 41040)	1	74867	1.05e5		2760	5469
7	CG17141 (GeneID 42697)	1	4.98e5	66082		25096	2250
8	CG12231 (GeneID 32942)	1	94258	1.75e5		3568	7659
9	CG32523 (GeneID 318071)	1	77665	2.43e5		2076	10147
10	MP1 (GeneID 40541)	1	1.72e5	6.59e5	1.41e5	6386	40891
11	tth (GeneID 32318)	1	81708	72560		1316	833
12	Eaf (GeneID 35660)	1	78720	1.57e5		2092	6727
13	Eaf (GeneID 35660)	2	2.39e5	1.35e5		8822	4241
14	Prosbeta4R1 (GeneID 33449)	1	90760	57008		2567	1500
15	PCNA (GeneID 37290)	1	1.17e5	66104		5447	2765
16	CG31729 (GeneID 34736)	1	1.05e5	68096		4546	2674
17	CG31729 (GeneID 34736)	2	1.11e5	52807		2854	5514
18	Gr58a (GeneID 117344)	1	1.08e5	1.58e5		3132	7717
19	CG4372 (GeneID 37490)	1	78997	64938		2653	5724
20	CG13364 (GeneID 50364)	1	1.17e5	2.45e5		4072	8556
21	CG13364 (GeneID 50364)	2	1.11e5	2.31e5		3937	8080
22	LManII (GeneID 34437)	1	92186	66945		3510	2873
23	CG5071 (GeneID 43090)	1	7.99e5	1.70e5		39712	4938
24	Non1 (GeneID 35963)	1	40955	14604		2685	853
25	Taf4 (GeneID 39765)	1	47704	30010		2067	1353
26	CG17124 (GeneID 34485)	1	1.68e5	1.01e5		4316	8573
27	CG11905 (GeneID 39895)	1	1.19e5	91159		4906	3650
28	Pak (GeneID 44039)	1	95996	56560		3756	2066
29	GlcAT-I (GeneID 251900)	1	4.22e5	1.34e5		21418	2794
30	GATAd (GeneID 34395)	1	80788	39515		3721	1976
31	stai (GeneID 33863)	1	1.04e5	50524		2874	5880
32	CG42360 (GeneID 37937)	1	85126	50821		1619	4944
33	CG7675 (GeneID 42211)	1	1.37e5	1.33e5		4919	5258
34	CG7248 (GeneID 39356)	1	57481	57788	65511	4192	4128
35	Ssl2 (GeneID 43424)	1	1.93e5	1.67e5		6181	3556
36	wdp (GeneID 37548)	1	44274	66114		2064	2967
37	CG43181 (GeneID 12798292)	1	3.92e5	1.33e5		20237	2710
38	Nepl5 (GeneID 33892)	1	56492	79216		2499	3002

Only “firefly Hh reporter signal, replicate 2”, for 12 of the entries above:
CG12231 (GeneID 32942): 1.75e5
CG32523 (GeneID 318071): 2.43e5
MP1 (GeneID 40541): 6.59e5
tth (GeneID 32318): 72560
Eaf (GeneID 35660) #1: 1.57e5
Eaf (GeneID 35660) #2: 1.35e5
Prosbeta4R1 (GeneID 33449): 57008
PCNA (GeneID 37290): 66104
CG31729 (GeneID 34736) #1: 68096
CG31729 (GeneID 34736) #2: 52807
Gr58a (GeneID 117344): 1.58e5
CG4372 (GeneID 37490): 64938

Additional results:
no.	target gene	reagent	firefly Hh reporter signal, replicate 1	firefly Hh reporter signal, replicate 2	firefly Hh reporter signal, replicate 3	Renilla reference signal, replicate 1	Renilla reference signal, replicate 2
39	CtBP (GeneID 41602)	1	65194	43979		2921	2582
40	CG12129 (GeneID 36044)	1	63216	45628		2903	2048
41	Best4 (GeneID 39660)	1	93992			1589	2396
42	CG42789 (GeneID 10178793)	1	7.52e5	1.25e5		5124	5124
43	epsilonTry (GeneID 49080)	1	88428	47273		2253	3360
44	Sgf11 (GeneID 40035)	1	1.21e5			5049	3543
45	ZnT77C (GeneID 40271)	1	1.16e5	96368		4240	2698
46	ZnT77C (GeneID 40271)	2	1.33e5	1.05e5		4309	3101
47	CG4650 (GeneID 34859)	1	96107	74368		2624	7040
48	c11.1 (GeneID 53436)	1	54310	1.78e5		1322	6028
49	plh (GeneID 40615)	1	1.11e5	1.14e5		4070	1760
50	CG12826 (GeneID 35710)	1	1.05e5	47036		2152	2981
51	Prosbeta2 (GeneID 39628)	1	51187 (active)	81431		3921	4193
52	CG3625 (GeneID 33198)	1	5.79e5	2.69e5		29163	12754
53	CG3625 (GeneID 33198)	2	1.02e5	90040		4560	4000
54	CG15728 (GeneID 32214)	1	1.42e5	3.62e5		4994	12464
55	CG12831 (GeneID 35631)	1	1.13e5	58816		3025	5092
56	CG17359 (GeneID 39549)	1	1.08e5			3761	2946
57	CG32793 (GeneID 31280)	1	1.17e5	3.73e5		4615	12873
58	CG32793 (GeneID 31280)	2	95650	1.59e5		3898	5353
59	Upf3 (GeneID 37792)	1	1.32e5 (active)	1.00e5		3289	2400
60	Klp31E (GeneID 34422)	1	88918	54676		4817	2432
61	Camta (GeneID 35974)	1	1.24e5	39268		3253	3800
62	Camta (GeneID 35974)	2	1.70e5	3.58e5	94860	4193	22932
63	Camta (GeneID 35974)	3	72541	34537		2592	1366
64	CG42335 (GeneID 42558)	1	8.56e5	1.65e5		40261	2656
65	CG42335 (GeneID 42558)	2	8.54e5	1.70e5		36643	3357
66	Zip102B (GeneID 43786)	1	1.59e5	4.10e5		5895	13780
67	CG14868 (GeneID 41875)	1	4.84e5	77328		2266	2266
68	CG4313 (GeneID 31169)	1	90682	67132		2323	2358
69	CG10887 (GeneID 42399)	1	8.16e5	2.02e5		41206	5925
70	Reck (GeneID 39629)	1	1.16e5	76290		4541	3056
71	Reck (GeneID 39629)	2	93811			1472	2562
72	phr6-4 (GeneID 35322)	1	91488	61163		2672	4944
73	Cyp4d21 (GeneID 34036)	1	76579	64504		3120	2757
